Experimental findings from the supplement of paper PMC12578635 are described below.

Each structure is given as a SMILES string. Some of the results follow. Cut-off read from the data, not from the text of the source: active = 150% or more and inactive = the rest. Repeats are few or missing, and single values can be far off.

The subject of the experiment is Staphylococcus aureus JE2-lux inside RAW 264.7 macrophages. The experiment can be described thus: intracellular bacterial bioluminescence relative to DMSO vehicle; higher = higher intracellular bacterial metabolic activity. To be noted: 10 µM; treatment time 4 h; gentamicin 50 µg/ml. How it is done:
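RAW 264.7 macrophages infected with bioluminescent MRSA JE2-lux (MOI 100) were dispensed into 384-well plates with 10 µM compound in the presence of 50 µg/ml gentamicin. After 4 h at 37 °C, bacterial bioluminescence (a proxy for intracellular bacterial metabolic activity) and host cell viability (CellTiter-Fluor) were read and normalised to 0.1% DMSO vehicle controls. Single-pass screen of the UNC CICBDD kinase-targeted library (>4,700 compounds).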
In the case of `O=S(=O)(NCCCc1nc2cc3ccccc3cc2[nH]1)c1ccc2c(c1)OCCO2`, the intracellular bacterial bioluminescence was inactive: 114%.
The result for `CC1CCCN(S(=O)(=O)c2ccc(C(=O)Nc3nc4c(s3)CSc3ccccc3-4)cc2)C1` (stereo not drawn) reads inactive: 74.9%; that for `COc1ccc(C(=O)CSc2nc3cc4c(cc3cc2C#N)OCO4)cc1`, inactive: 71.5%; that for `Cc1ccc(Oc2ccc(CNC(=O)C(C)N3C(=O)NC(C)(C)C3=O)cc2)cc1` (stereo not drawn), inactive: 95.5%.
The result for `Cc1nn(C)c(C)c1CNC(=O)c1cc2c(-c3cccs3)nn(-c3ccccc3)c2n1C` reads inactive: 10.9%; that for `Cc1ccc(CNC(=O)CCCn2c(=S)[nH]c3ccc(Br)cc3c2=O)cc1`, inactive: 90%.
The same measure for `Cc1cc(C)c(NC(=O)CSC2=C(C#N)C(c3ccco3)CC(=O)N2)c(C)c1` (stereo not drawn): inactive: 20.2%; for `O=C(NCc1ccnc(N2CCCCC2)c1)Nc1cccc(Br)c1`: inactive: 18.2%; for `Cc1ccc(-c2csc(-n3nc(C)c(CC(=O)N4CCN(c5ccc(F)cc5)CC4)c3O)n2)cc1`: inactive: 94.8%.
Take `CCOC(=O)c1[nH]c2ccccc2c1NC(=S)Nc1cccc(C(F)(F)F)c1`: the intracellular bacterial bioluminescence was inactive: 77.7%.
The same measure for `O=C1c2ccccc2-c2nn(C(=O)c3ccccc3)c3cccc1c23`: inactive: 91.9%.
The result for `Cc1cc2cc3c(N)c(C(=O)Nc4nonc4C)sc3nc2cc1C` reads inactive: 107%.
Consider `CC(C)(C)n1nc2c(c1NC(=O)COc1ccccc1)CS(=O)(=O)C2`, for which the intracellular bacterial bioluminescence was inactive: 122%.
The same measure for `O=C(Nc1ccc(F)cc1)N1CCC(c2nc3ccccc3o2)CC1`: inactive: 95.3%; for `Cc1ccc(NC(=O)c2cnn3c(=O)c4c([nH]c23)CCC4)cc1`: inactive: 99%; for `O=C(Nc1ccc(F)c(Cl)c1)C(=O)Nc1ccc2c(c1)OCCO2`: inactive: 85.9%.
The result for `Cc1ccc(N2C(=O)SC(Nc3ccccc3C(=O)O)C2=O)cc1C` (stereo not drawn) reads inactive: 121%; that for `COc1ccccc1NC(=O)N1CCCC1C(=O)Nc1cccc2ccccc12` (stereo not drawn), inactive: 115%.
The same measure for `Cc1ccc2sc(NC(=O)c3ccc(N4C(=O)CCC4=O)cc3)nc2c1C`: inactive: 96.8%.
In the case of `Cc1cc(C)n(-c2cc(N3CCN(c4cc(Cl)ccc4C)CC3)ncn2)n1`, the intracellular bacterial bioluminescence was inactive: 102%.
The result for `Cc1cc(NC(=O)c2cccc(C(F)(F)F)c2)nc2c1c(=O)oc1ccccc12` reads inactive: 99.3%; that for `CCCn1c(SCC(=O)Nc2ccccc2CC)nc2c(oc3ccccc32)c1=O`, inactive: 96.3%; that for `CCOc1ccc2cc(C#N)c(SCC(=O)Nc3ccccc3C(F)(F)F)nc2c1`, inactive: 91.9%.
The same measure for `COc1cc(C(=O)Oc2ccc3oc(=O)cc(-c4cc5ccccc5o4)c3c2)cc(OC)c1OC`: inactive: 126%; for `CCOC(=O)c1sc(NC(=O)CSc2nc3c(=O)n(C)c(=O)n(C)c3n2C)nc1C`: inactive: 92.8%.
The result for `CN(C)CCN(C(=O)C1CC(=O)Nc2ccccc21)C1CCCCC1` (stereo not drawn) reads inactive: 118%; that for `CCOc1ccc(-c2c(C#N)c(N)nc(SCC(=O)c3ccccc3)c2C#N)cc1`, inactive: 58.3%.
For `Cc1oc2ncnc(OC3CCN4Cc5ccccc5N=C34)c2c1C` (stereo not drawn), the intracellular bacterial bioluminescence is inactive: 90.6%.
The result for `CC1CC(NC(=O)C(=O)c2c[nH]c3ccccc23)CC(C)(C)C1` (stereo not drawn) reads inactive: 102%; that for `Cc1cc(SCC(=O)OCc2ccccc2)nc(=O)[nH]1`, inactive: 112%.
The same measure for `COC(=O)c1ccc(NC(=O)CSc2ncnc3sc4c(c23)CCC4)cc1`: inactive: 64.5%; for `O=C(NC(=S)Nc1ccc(S(=O)(=O)N2CCc3ccccc32)cc1)c1cccs1`: inactive: 85.3%; for `Cc1ccc(C)c(S(=O)(=O)Nc2cc(Sc3nc[nH]n3)c(O)c3ccccc23)c1`: inactive: 126%.
`CN(C)CCCN1C(=O)C(O)=C(C(=O)c2ccncc2)C1c1cccc(F)c1` (stereo not drawn): the intracellular bacterial bioluminescence was inactive: 99.1%.
The result for `COc1ccc(N2CCn3c(nc4ccccc43)C2)cc1NC(=O)Nc1ccccc1` reads inactive: 49.5%; that for `O=C(c1cccs1)N1CCN=C1SCc1ccc(Cl)cc1`, inactive: 39.9%; that for `O=C(CC1Sc2ccc(C(F)(F)F)cc2NC1=O)Nc1ccc(OC(F)F)cc1` (stereo not drawn), inactive: 38.8%.
The result for `CCOCCCNC(=O)Cc1csc2nc(-c3ccc(F)cc3)cn12` reads inactive: 38.9%; that for `O=C(NCCCSc1nc2ccccc2s1)Nc1ncccn1`, inactive: 53.8%.
The result for `CCCn1/c(=N/C(=O)c2c(F)cccc2F)sc2cc(S(C)(=O)=O)ccc21` reads inactive: 110%.
Take `CC(=O)Nc1ccc(S(=O)(=O)Nc2ccc(-c3cn4ccc(C)nc4n3)cc2)cc1`: the intracellular bacterial bioluminescence is inactive: 105%.
The result for `CCCCCC(=O)n1nc(-c2ccc(Cl)cc2)nc1N` reads inactive: 109%.
The result for `Cc1n[nH]c2c1C(c1ccc(OCc3ccccc3)cc1)C(C#N)=C(N)O2` (stereo not drawn) reads inactive: 106%.
The result for `COc1ccc(S(=O)(=O)c2cn(CC(=O)Nc3cc(C)ccc3C)c3ccccc3c2=O)cc1` reads inactive: 96%; that for `CC(C)=CCSc1nc2sc3c(c2c(=O)[nH]1)CCCC3`, inactive: 127%.
Turning to `CCOc1ccccc1CNC(=O)c1c(-c2ccccc2)nnc2ccc(C)cc12`, the intracellular bacterial bioluminescence is inactive: 62%.
For the compound `Cc1nn(-c2ccccc2)c2c1C(c1ccc([N+](=O)[O-])cc1)C(C#N)=C(N)O2` (stereo not drawn), the intracellular bacterial bioluminescence is inactive: 86.1%.
The same measure for `Cn1cccc1-c1cc2n(n1)CCC(=O)N2CC(=O)NCc1cccnc1`: inactive: 93.7%.
Turning to `Cc1oc(-c2ccno2)cc1S(=O)(=O)NCc1ccc(Cl)cc1`, the intracellular bacterial bioluminescence was inactive: 96.5%.
The result for `COCCNc1ncnc2c1c(C)c(C)n2-c1ccc(F)c(F)c1` reads inactive: 42.5%; that for `COc1ccc(-c2ccc(=O)n(CCNC(=O)COc3ccccc3)n2)cc1`, inactive: 107%.
The result for `CC(C)CCN1C(=O)CCc2cc(NS(=O)(=O)c3ccc(F)c(Cl)c3)ccc21` reads inactive: 120%.
The result for `Cc1nn(C(C)CC(=O)NC(c2ccccc2)c2cccnc2)c(C)c1C` (stereo not drawn) reads inactive: 93.4%; that for `Nc1ncnc(Sc2nc3ccccc3[nH]2)c1[N+](=O)[O-]`, inactive: 16.3%; that for `O=C(CSc1nc2ccccc2cc1CC1CCCC1)NCc1ccccc1`, inactive: 103%.
For the compound `CCOc1ccccc1Nc1nc(-c2nnc(-c3ccc(C)cc3)o2)nc2ccccc12`, the intracellular bacterial bioluminescence was inactive: 119%.
The same measure for `COc1ccc(N2C(=O)c3nccnc3C2=O)cc1OC`: inactive: 94.1%; for `Cc1sc(C)c(S(=O)(=O)N2CCc3ccccc3C2)c1-c1cc(C(F)(F)F)on1`: inactive: 103%.
